Experimental data: article PMC4121141, “Structural Basis for TatA Oligomerization: An NMR Study of Escherichia coli TatA Dimeric Structure” (PLoS ONE, 2014)
No constants are given. Whether binding was seen depends on the method and setting.

Target: Escherichia coli TatA, wild type, full length (Escherichia coli) (UniProt P69428)
Experiment: condition: only at high detergent-to-protein molar ratio (DPC, DPR >200); NMR 1H-15N HSQC and solution NMR structure at high detergent-to-protein ratio; full-length TatA in DPC/dDPC micelles at high DPR (>200; 300), 35°C; one set of cross peaks; both purified

binding: no binding
B1: Escherichia coli TatA, wild type, full length (natural protein, UniProt P69428 1-89, looked up)
chain: MGGISIWQLLIIAVIVVLLFGTKKLGSIGSDLGASIKGFKKAMSDDEPKQDKTSQDADFTAKTIADKQADTNQEQAKTEDAKRHDKEQV
notes: TatA, Escherichia coli, 89 amino acids, one transmembrane helix (Ile6-Phe20) and one amphipathic helix (Lys24-Met43); 15N- or 13C/15N-labelled for NMR; also called wt-TatA; wild-type TatA; source: in C12E9 with Superdex 200 gel filtration for blue-native PAGE
